PubChem BioAssay AID1224831 | NIAID – 2016
Test: 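Genes that support or restrain LPS-induced TNF-alpha reporter activity in macrophage-like cells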 (follow-up of hits). System: human THP-1 B5 monocytic leukaemia cells carrying a TNF promoter luciferase reporter, made macrophage-like with PMA. Reagent: single siRNA against human genes, 50 nM. Timing: about 68 h of knock-down, then 4 h LPS. Treatment: LPS (Salmonella minnesota, TLR-grade) at 10 ng/ml for 4 h; PMA 5 ng/ml present during knock-down. Detection: 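Firefly to renilla luciferase ratio of a TNF promoter reporter after 4 h LPS, scaled to plate median, turned into robust z-score, averaged over replicates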. Direction: TNF reporter z-score: higher = stronger LPS-induced TNF reporter signal; z-score, median over gene's siRNAs: higher = stronger TNF reporter signal across the gene's siRNAs. Active means: 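Two-sided call: reduced or raised TNF reporter signal counts as active once mean z reaches about -1 or below, or about 1.5 or above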. Calls: active = changed TNF reporter (either direction); inactive = little change.
In all, the deposit lists about 3,500 reagents; shown is a random part of them. Of all reagents, 731 (21%) got an active call. 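Active means either lowered or raised reporter signal; the gene-median score did not drive the per-siRNA calls.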 Unmarked entries are inactive. The numbers tell different reagents against one gene apart.

Against SLC36A3 #1 the deposit lists TNF reporter z-score, replicate mean 0.82; z-score, median over gene's siRNAs 0.225. Depletion of SLC36A3 #2 resulted in: TNF reporter z-score, replicate mean 0.33; z-score, median over gene's siRNAs 0.225. Against SLC36A3 #3 the deposit lists TNF reporter z-score, replicate mean 0.12; z-score, median over gene's siRNAs 0.225. For SLC36A3 #4 the deposit lists TNF reporter z-score, replicate mean 0.85; z-score, median over gene's siRNAs 0.225. SLC36A3 #5 showed TNF reporter z-score, replicate mean 0.05; z-score, median over gene's siRNAs 0.225. SLC36A3 #6 scored TNF reporter z-score, replicate mean -0.27; z-score, median over gene's siRNAs 0.225.

Silencing of CCDC125 #1 gave: TNF reporter z-score, replicate mean 1.08; z-score, median over gene's siRNAs 0.77. CCDC125 #2 scored TNF reporter z-score, replicate mean 0.46; z-score, median over gene's siRNAs 0.77. Against CCDC125 #3, the values are TNF reporter z-score, replicate mean 1.22; z-score, median over gene's siRNAs 0.77. Depletion of CCDC125 #4 came out at: TNF reporter z-score, replicate mean 0.43; z-score, median over gene's siRNAs 0.77. With knock-down of CCDC125 #5, the screen gave TNF reporter z-score, replicate mean -0.86; z-score, median over gene's siRNAs 0.77. For CCDC125 #6 the deposit lists TNF reporter z-score, replicate mean 1.62 (active); z-score, median over gene's siRNAs 0.77.

After knock-down of FNBP1L #1, the screen gave TNF reporter z-score, replicate mean -0.73; z-score, median over gene's siRNAs 0.475. FNBP1L #2 gave TNF reporter z-score, replicate mean 0.79; z-score, median over gene's siRNAs 0.475. After knock-down of FNBP1L #3, the screen gave TNF reporter z-score, replicate mean 0.16; z-score, median over gene's siRNAs 0.475. Against FNBP1L #4, the values are TNF reporter z-score, replicate mean 1.15; z-score, median over gene's siRNAs 0.475. FNBP1L #5 showed TNF reporter z-score, replicate mean 2.08 (active); z-score, median over gene's siRNAs 0.475. After knock-down of FNBP1L #6, the record shows TNF reporter z-score, replicate mean 0.16; z-score, median over gene's siRNAs 0.475.

CCDC12 #1 showed TNF reporter z-score, replicate mean 0.34; z-score, median over gene's siRNAs 0.285. With knock-down of CCDC12 #2, the screen gave TNF reporter z-score, replicate mean 0.23; z-score, median over gene's siRNAs 0.285. After knock-down of CCDC12 #3, the record shows TNF reporter z-score, replicate mean -0.45; z-score, median over gene's siRNAs 0.285. After knock-down of CCDC12 #4, the record shows TNF reporter z-score, replicate mean -0.06; z-score, median over gene's siRNAs 0.285. CCDC12 #5 scored TNF reporter z-score, replicate mean 0.7; z-score, median over gene's siRNAs 0.285. After knock-down of CCDC12 #6, the screen gave TNF reporter z-score, replicate mean 1.45; z-score, median over gene's siRNAs 0.285.

With knock-down of IFIT1 #1, the screen gave TNF reporter z-score, replicate mean 1.64 (active); z-score, median over gene's siRNAs 1.33. Against IFIT1 #2, the entry reads TNF reporter z-score, replicate mean 2.01 (active); z-score, median over gene's siRNAs 1.33. Against IFIT1 #3, the entry reads TNF reporter z-score, replicate mean 0.7; z-score, median over gene's siRNAs 1.33. After knock-down of IFIT1 #4, the screen gave TNF reporter z-score, replicate mean 1.03; z-score, median over gene's siRNAs 1.33. With knock-down of IFIT1 #5, the screen gave TNF reporter z-score, replicate mean 1.84 (active); z-score, median over gene's siRNAs 1.33. With knock-down of IFIT1 #6, the record shows TNF reporter z-score, replicate mean 0.17; z-score, median over gene's siRNAs 1.33.
